The values below come from the supplement of paper PMC12067093, “Discovery and optimisation of a covalent ligand for TRIM25 and its application to targeted protein ubiquitination” (Chemical Science, 2025).

By UniProt entry, the sequences of proteins in these tests, tags left out. Where a name states a change or a piece, a line headed by the entry shows the natural chain unless it says otherwise.
UniProt Q12905: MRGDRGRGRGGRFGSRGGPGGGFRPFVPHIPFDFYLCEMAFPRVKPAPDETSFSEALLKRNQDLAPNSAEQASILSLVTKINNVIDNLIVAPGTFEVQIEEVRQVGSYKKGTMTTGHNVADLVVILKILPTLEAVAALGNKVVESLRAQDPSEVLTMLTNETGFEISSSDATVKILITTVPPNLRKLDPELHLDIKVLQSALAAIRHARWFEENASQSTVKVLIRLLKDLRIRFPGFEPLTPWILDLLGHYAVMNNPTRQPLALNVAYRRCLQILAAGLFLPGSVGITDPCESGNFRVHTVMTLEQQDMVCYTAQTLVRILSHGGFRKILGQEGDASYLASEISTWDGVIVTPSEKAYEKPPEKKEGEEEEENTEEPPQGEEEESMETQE
UniProt Q9NSE4: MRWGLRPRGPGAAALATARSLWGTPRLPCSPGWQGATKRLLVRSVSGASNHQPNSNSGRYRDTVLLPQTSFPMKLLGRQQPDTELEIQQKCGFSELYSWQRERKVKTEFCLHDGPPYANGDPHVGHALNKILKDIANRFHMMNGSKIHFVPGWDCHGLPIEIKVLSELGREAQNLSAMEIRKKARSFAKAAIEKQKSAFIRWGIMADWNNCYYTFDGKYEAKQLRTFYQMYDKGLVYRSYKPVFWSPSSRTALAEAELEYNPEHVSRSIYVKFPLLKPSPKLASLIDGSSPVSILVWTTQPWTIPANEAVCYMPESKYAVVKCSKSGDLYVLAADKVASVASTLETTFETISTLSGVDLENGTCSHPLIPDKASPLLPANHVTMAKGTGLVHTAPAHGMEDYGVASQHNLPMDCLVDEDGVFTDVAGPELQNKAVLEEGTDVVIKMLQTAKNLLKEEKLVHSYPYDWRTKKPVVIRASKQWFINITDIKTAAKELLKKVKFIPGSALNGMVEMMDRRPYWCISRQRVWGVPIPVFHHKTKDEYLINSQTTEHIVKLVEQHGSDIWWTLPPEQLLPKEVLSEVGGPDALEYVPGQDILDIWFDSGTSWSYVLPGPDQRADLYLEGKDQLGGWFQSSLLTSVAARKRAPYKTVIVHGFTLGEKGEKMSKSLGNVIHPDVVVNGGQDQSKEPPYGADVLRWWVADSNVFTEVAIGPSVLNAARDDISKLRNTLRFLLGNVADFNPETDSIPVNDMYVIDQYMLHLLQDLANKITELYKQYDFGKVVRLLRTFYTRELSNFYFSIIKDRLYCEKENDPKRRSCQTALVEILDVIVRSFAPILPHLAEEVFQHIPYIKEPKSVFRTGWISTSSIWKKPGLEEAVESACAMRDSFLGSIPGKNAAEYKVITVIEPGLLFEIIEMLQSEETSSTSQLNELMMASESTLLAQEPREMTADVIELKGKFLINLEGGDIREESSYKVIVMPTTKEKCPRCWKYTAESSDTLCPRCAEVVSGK
UniProt Q9BW83: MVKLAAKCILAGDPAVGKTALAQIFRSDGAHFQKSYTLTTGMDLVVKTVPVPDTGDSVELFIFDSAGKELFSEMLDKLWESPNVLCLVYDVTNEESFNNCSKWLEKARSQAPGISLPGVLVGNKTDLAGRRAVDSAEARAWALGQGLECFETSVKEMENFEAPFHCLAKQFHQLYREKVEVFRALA
UniProt P18065: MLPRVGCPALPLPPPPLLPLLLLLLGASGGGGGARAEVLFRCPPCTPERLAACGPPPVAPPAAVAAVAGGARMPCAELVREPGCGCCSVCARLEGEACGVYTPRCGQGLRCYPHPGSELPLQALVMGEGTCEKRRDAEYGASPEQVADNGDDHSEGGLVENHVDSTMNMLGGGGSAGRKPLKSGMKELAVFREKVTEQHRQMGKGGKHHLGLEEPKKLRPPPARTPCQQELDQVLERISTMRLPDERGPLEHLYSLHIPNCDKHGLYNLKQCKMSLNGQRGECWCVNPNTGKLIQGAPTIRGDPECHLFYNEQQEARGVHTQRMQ
UniProt Q8NBZ0, whole entry: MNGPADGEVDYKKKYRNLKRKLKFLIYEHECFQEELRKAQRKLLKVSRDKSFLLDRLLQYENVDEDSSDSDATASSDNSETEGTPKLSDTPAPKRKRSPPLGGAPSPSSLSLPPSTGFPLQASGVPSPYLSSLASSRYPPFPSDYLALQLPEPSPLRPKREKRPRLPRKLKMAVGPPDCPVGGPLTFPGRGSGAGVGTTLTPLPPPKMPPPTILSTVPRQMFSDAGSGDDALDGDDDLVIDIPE
UniProt P42858, whole entry, looked up: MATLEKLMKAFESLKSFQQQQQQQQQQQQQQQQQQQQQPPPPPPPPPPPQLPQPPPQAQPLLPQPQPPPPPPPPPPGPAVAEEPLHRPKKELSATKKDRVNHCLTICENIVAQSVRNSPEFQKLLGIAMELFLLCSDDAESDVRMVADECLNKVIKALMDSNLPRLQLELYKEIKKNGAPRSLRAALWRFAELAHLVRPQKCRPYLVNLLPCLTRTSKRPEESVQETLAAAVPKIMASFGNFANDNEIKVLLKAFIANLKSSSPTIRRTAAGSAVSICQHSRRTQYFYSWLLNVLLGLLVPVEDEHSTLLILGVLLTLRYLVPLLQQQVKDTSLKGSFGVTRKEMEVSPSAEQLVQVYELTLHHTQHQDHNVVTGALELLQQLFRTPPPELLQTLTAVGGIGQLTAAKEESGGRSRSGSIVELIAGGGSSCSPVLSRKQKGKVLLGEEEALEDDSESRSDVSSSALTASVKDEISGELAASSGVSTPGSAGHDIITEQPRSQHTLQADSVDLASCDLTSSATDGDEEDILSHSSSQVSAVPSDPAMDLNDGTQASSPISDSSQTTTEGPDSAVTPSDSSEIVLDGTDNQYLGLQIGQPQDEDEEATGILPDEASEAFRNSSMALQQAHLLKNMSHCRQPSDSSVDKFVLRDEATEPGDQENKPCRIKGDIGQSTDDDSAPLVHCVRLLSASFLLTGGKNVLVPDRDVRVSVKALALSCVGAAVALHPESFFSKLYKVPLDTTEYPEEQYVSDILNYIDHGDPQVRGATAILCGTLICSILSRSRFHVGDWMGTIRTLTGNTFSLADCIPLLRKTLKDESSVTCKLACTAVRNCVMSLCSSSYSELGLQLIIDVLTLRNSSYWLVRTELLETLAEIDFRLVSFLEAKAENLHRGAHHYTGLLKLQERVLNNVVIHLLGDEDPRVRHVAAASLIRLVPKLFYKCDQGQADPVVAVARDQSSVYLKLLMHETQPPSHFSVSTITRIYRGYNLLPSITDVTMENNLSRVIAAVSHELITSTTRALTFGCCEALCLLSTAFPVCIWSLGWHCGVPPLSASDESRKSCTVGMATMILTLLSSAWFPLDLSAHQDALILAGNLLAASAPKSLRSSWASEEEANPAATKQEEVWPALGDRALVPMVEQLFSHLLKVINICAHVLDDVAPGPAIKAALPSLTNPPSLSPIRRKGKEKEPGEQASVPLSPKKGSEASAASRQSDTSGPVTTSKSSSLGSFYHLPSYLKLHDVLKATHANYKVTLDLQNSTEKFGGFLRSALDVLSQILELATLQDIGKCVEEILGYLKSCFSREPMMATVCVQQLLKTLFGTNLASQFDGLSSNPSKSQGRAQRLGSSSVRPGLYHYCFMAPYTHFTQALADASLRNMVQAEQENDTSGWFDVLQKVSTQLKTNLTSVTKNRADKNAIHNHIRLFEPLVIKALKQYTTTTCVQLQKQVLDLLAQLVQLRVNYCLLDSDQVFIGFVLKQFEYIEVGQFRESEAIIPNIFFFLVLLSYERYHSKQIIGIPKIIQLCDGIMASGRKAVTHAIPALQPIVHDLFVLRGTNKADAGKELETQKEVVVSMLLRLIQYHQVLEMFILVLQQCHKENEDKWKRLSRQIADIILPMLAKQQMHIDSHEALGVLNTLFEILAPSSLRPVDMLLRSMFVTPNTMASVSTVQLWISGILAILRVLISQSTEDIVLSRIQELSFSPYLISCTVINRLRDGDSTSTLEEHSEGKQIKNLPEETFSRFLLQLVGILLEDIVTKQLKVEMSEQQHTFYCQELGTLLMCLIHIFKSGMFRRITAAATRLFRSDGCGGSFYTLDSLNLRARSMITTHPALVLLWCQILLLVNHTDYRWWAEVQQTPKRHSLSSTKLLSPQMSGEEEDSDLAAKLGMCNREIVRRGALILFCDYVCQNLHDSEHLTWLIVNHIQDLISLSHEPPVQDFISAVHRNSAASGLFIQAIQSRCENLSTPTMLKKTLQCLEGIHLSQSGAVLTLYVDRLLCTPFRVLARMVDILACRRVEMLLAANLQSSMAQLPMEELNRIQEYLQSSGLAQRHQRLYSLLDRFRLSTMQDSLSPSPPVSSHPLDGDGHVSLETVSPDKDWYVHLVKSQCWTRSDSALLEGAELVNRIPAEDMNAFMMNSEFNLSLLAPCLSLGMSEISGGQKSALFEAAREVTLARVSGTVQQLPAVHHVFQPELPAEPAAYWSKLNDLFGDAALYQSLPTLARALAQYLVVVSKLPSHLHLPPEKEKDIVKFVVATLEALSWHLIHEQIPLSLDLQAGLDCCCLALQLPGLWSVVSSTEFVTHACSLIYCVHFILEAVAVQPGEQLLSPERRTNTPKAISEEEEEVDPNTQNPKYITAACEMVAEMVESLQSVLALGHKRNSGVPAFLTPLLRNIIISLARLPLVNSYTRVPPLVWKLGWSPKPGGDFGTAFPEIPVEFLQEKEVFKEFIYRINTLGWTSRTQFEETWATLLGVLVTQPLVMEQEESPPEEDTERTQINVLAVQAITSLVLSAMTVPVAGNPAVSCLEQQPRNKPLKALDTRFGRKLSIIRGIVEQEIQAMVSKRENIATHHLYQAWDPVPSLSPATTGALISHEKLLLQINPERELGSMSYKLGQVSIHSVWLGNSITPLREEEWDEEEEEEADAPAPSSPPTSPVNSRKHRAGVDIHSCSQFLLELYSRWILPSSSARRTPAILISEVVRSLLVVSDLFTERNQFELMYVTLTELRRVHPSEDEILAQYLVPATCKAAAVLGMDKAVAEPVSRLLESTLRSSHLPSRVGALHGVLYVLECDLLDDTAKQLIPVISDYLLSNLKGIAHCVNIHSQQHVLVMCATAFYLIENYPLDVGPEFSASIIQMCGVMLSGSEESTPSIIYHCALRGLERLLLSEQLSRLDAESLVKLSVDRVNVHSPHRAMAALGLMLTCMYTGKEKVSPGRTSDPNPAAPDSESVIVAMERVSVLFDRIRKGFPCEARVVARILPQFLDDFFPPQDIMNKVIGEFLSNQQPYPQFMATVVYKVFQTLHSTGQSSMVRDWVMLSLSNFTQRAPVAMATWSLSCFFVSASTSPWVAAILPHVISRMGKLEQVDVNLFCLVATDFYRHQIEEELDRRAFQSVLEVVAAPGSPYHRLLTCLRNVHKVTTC
UniProt Q9H160: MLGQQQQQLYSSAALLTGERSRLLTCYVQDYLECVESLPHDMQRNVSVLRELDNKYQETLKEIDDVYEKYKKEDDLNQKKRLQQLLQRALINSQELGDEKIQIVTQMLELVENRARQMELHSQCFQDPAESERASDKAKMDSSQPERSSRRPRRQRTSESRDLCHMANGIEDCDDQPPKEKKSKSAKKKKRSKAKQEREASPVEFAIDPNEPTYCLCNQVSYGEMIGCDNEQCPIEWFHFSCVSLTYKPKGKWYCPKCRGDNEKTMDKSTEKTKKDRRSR
UniProt P32019: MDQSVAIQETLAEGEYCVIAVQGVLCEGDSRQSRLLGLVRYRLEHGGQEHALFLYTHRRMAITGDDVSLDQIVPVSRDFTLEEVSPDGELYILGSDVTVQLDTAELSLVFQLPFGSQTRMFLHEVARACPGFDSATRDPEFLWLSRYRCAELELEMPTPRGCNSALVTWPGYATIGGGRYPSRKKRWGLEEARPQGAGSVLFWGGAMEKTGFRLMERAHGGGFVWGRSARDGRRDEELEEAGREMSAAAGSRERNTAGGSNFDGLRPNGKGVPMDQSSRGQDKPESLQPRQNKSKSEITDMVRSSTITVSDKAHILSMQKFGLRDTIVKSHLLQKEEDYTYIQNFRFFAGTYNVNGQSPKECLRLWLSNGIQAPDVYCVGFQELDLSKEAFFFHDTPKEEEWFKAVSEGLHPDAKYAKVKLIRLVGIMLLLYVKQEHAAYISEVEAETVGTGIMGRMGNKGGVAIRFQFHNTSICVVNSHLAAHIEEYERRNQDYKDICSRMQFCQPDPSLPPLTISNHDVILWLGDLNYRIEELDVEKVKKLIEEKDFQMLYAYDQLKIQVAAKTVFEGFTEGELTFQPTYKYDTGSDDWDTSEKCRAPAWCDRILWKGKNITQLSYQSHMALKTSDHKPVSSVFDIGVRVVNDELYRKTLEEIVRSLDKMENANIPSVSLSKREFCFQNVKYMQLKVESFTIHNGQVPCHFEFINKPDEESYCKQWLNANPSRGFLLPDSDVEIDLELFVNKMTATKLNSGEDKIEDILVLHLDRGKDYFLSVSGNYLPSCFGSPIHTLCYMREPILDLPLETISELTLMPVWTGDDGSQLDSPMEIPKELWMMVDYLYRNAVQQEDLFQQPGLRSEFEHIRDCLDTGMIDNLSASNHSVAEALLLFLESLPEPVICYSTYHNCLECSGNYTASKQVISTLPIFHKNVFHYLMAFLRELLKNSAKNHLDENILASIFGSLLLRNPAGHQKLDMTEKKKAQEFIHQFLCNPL

This is one part of the list.

Compound in the test: CC1Cc2ccccc2N1C(=O)C1CCCN(C1)C(=O)CCl (mixture of isomers) [TRIM25 ligand 11 (diastereomer mixture)]
In words: probe-labelled cysteine peptide fold change vs DMSO (competition) (log2 fold change); higher = less target engagement (more negative = stronger competition). The following applies: THP-1, incubation time: 4 h.
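Further: competitive chemoproteomic profiling in live THP-1 cells with an iodoacetamide desthiobiotin (IA-DTB) probe, comparing probe-labelled peptide intensities in compound-treated cells against DMSO-treated controls.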

As to “ILF2_Q12905_291_CLQILAAGLFLPGSVGITDPCESGNFR (UniProt Q12905)”, the “probe-labelled cysteine peptide fold change” value is -0.0218 (10 µM) and 0.268 (50 µM).

Regarding “IARS2_Q9NSE4_110_TEFCLHDGPPYANGDPHVGHALNK (UniProt Q9NSE4)”, the “probe-labelled cysteine peptide fold change” value is, setting by setting: (10 µM) 0.0161; (50 µM) -0.0635.

Consider “IL1RAP_Q9NPH3_438_LCIFDRDSLPGGIVTDETLSFIQK (UniProt Q9NPH3)”, for which the “probe-labelled cysteine peptide fold change” value runs as follows: (10 µM) 0.0923; (50 µM) 0.143.

Turning to “IL4I1_Q96RQ9_252_AHSCLSDR (UniProt Q96RQ9)”, the “probe-labelled cysteine peptide fold change” value worked out at 0.19 (10 µM) and 0.207 (50 µM).

Turning to “IFT27_Q9BW83_149_AWALGQGLECFETSVK (UniProt Q9BW83)”, the “probe-labelled cysteine peptide fold change” value was -0.00671 (10 µM) and 0.0476 (50 µM).

On to “HUWE1_Q7Z6Z7_3658_RAQCETLSPDGLPEEQPQTTK (UniProt Q7Z6Z7)”, for which the “probe-labelled cysteine peptide fold change” value was -0.164 (10 µM) and -0.175 (50 µM).

For the target “IGF2R_P11717_814_YYINVCRPLNPVPGCNR (UniProt P11717)”, the “probe-labelled cysteine peptide fold change” value is -0.0433 (10 µM) and 0.0709 (50 µM).

In the case of “IDH3A_P50213_351_CSDFTEEICR (UniProt P50213)”, the “probe-labelled cysteine peptide fold change” value was -0.00891 (10 µM) and -0.107 (50 µM).

Consider “IARS2_Q9NSE4_155_IHFVPGWDCHGLPIEIK (UniProt Q9NSE4)”, for which the “probe-labelled cysteine peptide fold change” value (10 µM) worked out at 0.0601 and the “probe-labelled cysteine peptide fold change” value (50 µM) was 0.143.

Regarding “IGFBP2_P18065_227_TPCQQELDQVLER (UniProt P18065)”, the “probe-labelled cysteine peptide fold change” value (10 µM) was found to be 0.118 and the “probe-labelled cysteine peptide fold change” value (50 µM) is -0.0712.

As to IDH2_P48735_154_EPIICK (UniProt P48735), the “probe-labelled cysteine peptide fold change” value came out at 0.0361 (10 µM) and 0.0504 (50 µM).

As for “INO80E_Q8NBZ0_31_FLIYEHECFQEELRK (UniProt Q8NBZ0)”, the “probe-labelled cysteine peptide fold change” value (10 µM) was -0.0187 and the “probe-labelled cysteine peptide fold change” value (50 µM) was 0.0537.

In the case of “HTT_P42858_1152_VINICAHVLDDVAPGPAIK (UniProt P42858)”, the “probe-labelled cysteine peptide fold change” value reads like this: (10 µM) 0.0583; (50 µM) 0.184.

For the target “ILKAP_Q9H0C8_325_FILLACDGLFK (UniProt Q9H0C8)”, the “probe-labelled cysteine peptide fold change” value is -0.0149 (10 µM) and -0.091 (50 µM).

For the target “ING2_Q9H160_34_LLTCYVQDYLECVESLPHDMQR (UniProt Q9H160)”, the “probe-labelled cysteine peptide fold change” value is -0.0647 (10 µM) and -0.31 (50 µM).

On to “IGF2R_P11717_174_EVPCYVFDEELRK (UniProt P11717)”, for which the “probe-labelled cysteine peptide fold change” value reads like this: (10 µM) -0.048; (50 µM) -0.0794.

Regarding “HYAL3_O43820_220_CHAATLAR (UniProt O43820)”, the “probe-labelled cysteine peptide fold change” value (10 µM) is -0.0987 and the “probe-labelled cysteine peptide fold change” value (50 µM) was 0.0993.

As for “IGF2R_P11717_1598_DGSPCPSK (UniProt P11717)”, the “probe-labelled cysteine peptide fold change” value was -0.0354 (10 µM) and 0.0576 (50 µM).

For “IKBKG_Q9Y6K9_417_CQYQAPDMDTLQIHVMECIE (UniProt Q9Y6K9)”, the “probe-labelled cysteine peptide fold change” value was -0.113 (10 µM) and -0.374 (50 µM).

On to “INPP5B_P32019_129_ACPGFDSATR (UniProt P32019)”, for which the “probe-labelled cysteine peptide fold change” value reads like this: (10 µM) 0.0835; (50 µM) 0.0482.

For “ING2_Q9H160_124_QMELHSQCFQDPAESER (UniProt Q9H160)”, the “probe-labelled cysteine peptide fold change” value runs as follows: (10 µM) -0.0233; (50 µM) -0.129.

For “IMPDH2_P12268_468_FVPYLIAGIQHSCQDIGAK (UniProt P12268)”, the “probe-labelled cysteine peptide fold change” value is -0.064 (10 µM) and -0.107 (50 µM).

Turning to “HUWE1_Q7Z6Z7_2721_DQSAQCTASK (UniProt Q7Z6Z7)”, the “probe-labelled cysteine peptide fold change” value is, setting by setting: (10 µM) 0.0453; (50 µM) -0.165.

For the target “IKZF1_Q13422_182_CHLCNYACR (UniProt Q13422)”, the “probe-labelled cysteine peptide fold change” value is, setting by setting: (10 µM) 0.06; (50 µM) 0.198.

Regarding “IGF2R_P11717_1927_LWCSTTADYDRDHEWGFCR (UniProt P11717)”, the “probe-labelled cysteine peptide fold change” value was -0.00851 (10 µM) and -0.173 (50 µM).

On to “HUWE1_Q7Z6Z7_349_LSSIIDCTGTASYHGFLPVLVR (UniProt Q7Z6Z7)”, for which the “probe-labelled cysteine peptide fold change” value is 0.118 (10 µM) and -0.11 (50 µM).

As for “IKBKB_O14920_716_KSEELVAEAHNLCTLLENAIQDTVR (UniProt O14920)”, the “probe-labelled cysteine peptide fold change” value (10 µM) came out at 0.164 and the “probe-labelled cysteine peptide fold change” value (50 µM) was 0.121.

Turning to “IFT27_Q9BW83_8_CILAGDPAVGK (UniProt Q9BW83)”, the “probe-labelled cysteine peptide fold change” value reads like this: (10 µM) -0.095; (50 µM) -0.133.

Turning to “IGF2R_P11717_893_IHLVCSR (UniProt P11717)”, the “probe-labelled cysteine peptide fold change” value was -0.0445 (10 µM) and 0.00867 (50 µM).

With “ILK_Q13418_422_VALEGLRPTIPPGISPHVCK (UniProt Q13418)”, the “probe-labelled cysteine peptide fold change” value was -0.0497 (10 µM) and -0.0569 (50 µM).

In the case of “IGF2R_P11717_288_EEAGKLDFCDGHSPAVTITFVCPSER (UniProt P11717)”, the “probe-labelled cysteine peptide fold change” value (10 µM) is -0.0837 and the “probe-labelled cysteine peptide fold change” value (50 µM) was 0.0263.

As for “IGF2R_P11717_1839_TYSVGVCTFAVGPEQGGCK (UniProt P11717)”, the “probe-labelled cysteine peptide fold change” value is -0.0521 (10 µM) and 0.0858 (50 µM).

As for “IFI35_P80217_107_EHTINMEECR (UniProt P80217)”, the “probe-labelled cysteine peptide fold change” value by setting is: (10 µM) -0.0214; (50 µM) -0.0266.

For “ILF3_Q12906_203_CLAALASLR (UniProt Q12906)”, the “probe-labelled cysteine peptide fold change” value by setting is: (10 µM) -0.0668; (50 µM) 0.0994.

On to “HTT_P42858_1708_IQELSFSPYLISCTVINR (UniProt P42858)”, for which the “probe-labelled cysteine peptide fold change” value (10 µM) is -0.298 and the “probe-labelled cysteine peptide fold change” value (50 µM) was -0.0732.

With “IL6R_P08887_25_CPAQEVAR (UniProt P08887)”, the “probe-labelled cysteine peptide fold change” value reads like this: (10 µM) -0.0736; (50 µM) -0.0328.

Consider “IGF2R_P11717_1516_SNEHDDCQVTNPSTGHLFDLSSLSGR (UniProt P11717)”, for which the “probe-labelled cysteine peptide fold change” value was 0.163 (10 µM) and -0.255 (50 µM).

With “IARS_P41252_336_VCMDFNIIRK (UniProt P41252)”, the “probe-labelled cysteine peptide fold change” value was -0.269 (10 µM) and -0.115 (50 µM).

In the case of “INO80_Q9ULG1_1026_VTAVPLDSYCNDR (UniProt Q9ULG1)”, the “probe-labelled cysteine peptide fold change” value by setting is: (10 µM) -0.0821; (50 µM) 0.000184.
